This is one part of the list.
compound: c1ccc([C@@H]2C[C@H]2NC2CCNCC2)cc1; test: log2 fold change, soluble protein after heating vs DMSO (PISA); higher = thermal stabilisation; K562 cells, 10 uM, 30 min; active = over 0.2 and 3.5 SD of the protein, either way, in both replicates (recomputed)
Summary of the method: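 Thermal stability values are relative to control samples and come from duplicates. They are expressed as log2 fold changes. For measurement, K562 cells (2×10^6 cells/mL) received 10 μM compound for 30 min, and aliquots were heated for 3 min over 48°C-58°C, pooled, and extracted at 4°C in PBS with 0.5% NP-40. Soluble protein, the supernatant after 21,000xg for 90 min, was quantified by TMTpro 16plex LC-MS/MS with equalised channel sums.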

By UniProt entry, the sequences of proteins in these tests, tags left out. Where a name states a change or a piece, a line headed by the entry shows the natural chain unless it says otherwise.
UniProt Q16842: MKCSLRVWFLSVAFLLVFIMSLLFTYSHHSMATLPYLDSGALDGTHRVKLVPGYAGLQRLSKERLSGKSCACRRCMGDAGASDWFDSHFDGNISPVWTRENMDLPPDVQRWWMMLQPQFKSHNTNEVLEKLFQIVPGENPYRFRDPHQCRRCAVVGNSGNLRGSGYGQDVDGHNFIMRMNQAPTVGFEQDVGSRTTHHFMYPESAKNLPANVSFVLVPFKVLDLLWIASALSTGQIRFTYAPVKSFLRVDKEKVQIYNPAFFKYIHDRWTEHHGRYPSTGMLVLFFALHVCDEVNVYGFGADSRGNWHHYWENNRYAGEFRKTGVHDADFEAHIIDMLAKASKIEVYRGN
UniProt P61011: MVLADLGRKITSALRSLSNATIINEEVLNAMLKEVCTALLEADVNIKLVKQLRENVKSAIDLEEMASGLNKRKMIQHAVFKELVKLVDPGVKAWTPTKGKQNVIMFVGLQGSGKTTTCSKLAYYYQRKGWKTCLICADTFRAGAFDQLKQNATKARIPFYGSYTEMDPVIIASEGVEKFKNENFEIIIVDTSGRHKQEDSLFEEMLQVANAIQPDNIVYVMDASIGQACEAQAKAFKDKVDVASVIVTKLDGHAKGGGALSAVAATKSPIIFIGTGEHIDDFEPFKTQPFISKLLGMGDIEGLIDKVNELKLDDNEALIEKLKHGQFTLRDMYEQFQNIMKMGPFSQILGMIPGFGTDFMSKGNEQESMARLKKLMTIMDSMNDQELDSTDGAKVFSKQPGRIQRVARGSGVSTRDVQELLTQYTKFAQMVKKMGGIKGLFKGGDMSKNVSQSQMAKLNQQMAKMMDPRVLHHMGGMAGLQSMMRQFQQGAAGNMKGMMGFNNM
UniProt Q13243: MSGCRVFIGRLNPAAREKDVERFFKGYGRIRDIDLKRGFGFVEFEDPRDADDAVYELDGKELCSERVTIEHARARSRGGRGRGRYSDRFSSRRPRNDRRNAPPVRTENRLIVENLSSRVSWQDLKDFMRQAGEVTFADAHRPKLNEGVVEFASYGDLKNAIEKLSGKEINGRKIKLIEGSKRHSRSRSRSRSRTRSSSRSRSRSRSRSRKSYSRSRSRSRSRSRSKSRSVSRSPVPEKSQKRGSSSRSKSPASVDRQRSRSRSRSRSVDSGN
UniProt Q9HD15: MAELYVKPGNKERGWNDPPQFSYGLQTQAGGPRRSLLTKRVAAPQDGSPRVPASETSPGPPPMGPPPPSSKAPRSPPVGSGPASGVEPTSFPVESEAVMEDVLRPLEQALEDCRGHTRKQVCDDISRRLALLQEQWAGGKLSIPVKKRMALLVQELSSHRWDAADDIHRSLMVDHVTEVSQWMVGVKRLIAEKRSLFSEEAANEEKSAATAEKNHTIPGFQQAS
UniProt Q16385, whole entry, looked up: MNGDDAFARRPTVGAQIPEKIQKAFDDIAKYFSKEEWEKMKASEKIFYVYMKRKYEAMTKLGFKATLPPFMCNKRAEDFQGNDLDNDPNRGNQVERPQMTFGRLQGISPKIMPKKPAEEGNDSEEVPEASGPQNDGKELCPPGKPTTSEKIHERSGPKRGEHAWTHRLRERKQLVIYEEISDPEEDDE
UniProt Q8WW59: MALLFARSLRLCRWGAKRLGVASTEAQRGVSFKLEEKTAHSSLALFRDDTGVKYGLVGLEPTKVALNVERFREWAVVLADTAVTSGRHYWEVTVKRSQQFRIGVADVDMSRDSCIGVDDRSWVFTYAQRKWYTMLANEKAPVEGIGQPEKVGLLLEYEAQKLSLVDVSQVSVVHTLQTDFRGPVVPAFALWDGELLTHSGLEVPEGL
UniProt P61009: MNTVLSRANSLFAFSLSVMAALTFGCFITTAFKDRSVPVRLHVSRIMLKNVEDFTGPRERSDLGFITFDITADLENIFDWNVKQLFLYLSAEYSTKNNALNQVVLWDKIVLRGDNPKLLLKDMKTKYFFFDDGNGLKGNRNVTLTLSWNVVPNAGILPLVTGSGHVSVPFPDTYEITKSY
UniProt Q8N1F8: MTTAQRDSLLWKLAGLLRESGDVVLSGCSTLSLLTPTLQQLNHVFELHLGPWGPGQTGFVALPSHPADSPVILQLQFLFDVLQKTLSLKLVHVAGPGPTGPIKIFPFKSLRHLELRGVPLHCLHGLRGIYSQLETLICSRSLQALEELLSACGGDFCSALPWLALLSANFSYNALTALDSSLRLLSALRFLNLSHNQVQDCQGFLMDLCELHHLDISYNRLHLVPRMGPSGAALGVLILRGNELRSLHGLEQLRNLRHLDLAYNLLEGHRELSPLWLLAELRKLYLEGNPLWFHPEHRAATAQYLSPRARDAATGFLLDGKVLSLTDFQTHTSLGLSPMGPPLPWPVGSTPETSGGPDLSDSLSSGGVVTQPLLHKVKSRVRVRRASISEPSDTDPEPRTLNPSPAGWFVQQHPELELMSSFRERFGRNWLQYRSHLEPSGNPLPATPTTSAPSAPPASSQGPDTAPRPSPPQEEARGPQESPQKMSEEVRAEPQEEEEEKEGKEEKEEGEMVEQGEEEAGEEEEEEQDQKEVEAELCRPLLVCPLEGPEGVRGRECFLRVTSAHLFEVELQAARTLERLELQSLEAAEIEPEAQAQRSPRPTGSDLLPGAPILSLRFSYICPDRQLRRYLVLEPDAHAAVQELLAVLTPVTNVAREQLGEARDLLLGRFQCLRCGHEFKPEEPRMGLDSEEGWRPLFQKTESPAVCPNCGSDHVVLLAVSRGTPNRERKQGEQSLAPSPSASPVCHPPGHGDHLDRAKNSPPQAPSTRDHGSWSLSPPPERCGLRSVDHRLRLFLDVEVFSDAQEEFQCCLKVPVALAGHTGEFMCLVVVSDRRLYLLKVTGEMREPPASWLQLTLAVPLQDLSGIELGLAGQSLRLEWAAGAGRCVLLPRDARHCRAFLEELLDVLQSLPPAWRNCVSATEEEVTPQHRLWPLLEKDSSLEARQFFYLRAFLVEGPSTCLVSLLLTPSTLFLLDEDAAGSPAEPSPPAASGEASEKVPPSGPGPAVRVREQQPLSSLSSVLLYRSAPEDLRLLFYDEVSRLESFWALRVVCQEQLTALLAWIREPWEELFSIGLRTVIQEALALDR
UniProt Q9UHB9: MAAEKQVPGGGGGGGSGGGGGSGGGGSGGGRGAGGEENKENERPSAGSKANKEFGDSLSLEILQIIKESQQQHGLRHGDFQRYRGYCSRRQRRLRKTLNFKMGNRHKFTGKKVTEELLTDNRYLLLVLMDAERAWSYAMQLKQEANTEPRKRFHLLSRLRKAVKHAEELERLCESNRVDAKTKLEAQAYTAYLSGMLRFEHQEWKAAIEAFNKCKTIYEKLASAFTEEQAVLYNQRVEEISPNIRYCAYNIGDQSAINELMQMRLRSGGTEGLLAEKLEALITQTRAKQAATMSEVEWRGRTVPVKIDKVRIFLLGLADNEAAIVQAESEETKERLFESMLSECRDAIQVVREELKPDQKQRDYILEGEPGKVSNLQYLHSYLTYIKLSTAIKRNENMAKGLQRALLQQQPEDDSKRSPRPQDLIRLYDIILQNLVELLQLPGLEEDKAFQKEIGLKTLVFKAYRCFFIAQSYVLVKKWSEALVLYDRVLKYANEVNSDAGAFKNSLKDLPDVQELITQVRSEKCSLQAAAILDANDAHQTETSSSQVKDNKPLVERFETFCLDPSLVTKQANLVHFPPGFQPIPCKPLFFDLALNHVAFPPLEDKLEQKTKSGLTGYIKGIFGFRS

| Target | log2 fold change |
| --- | --- |
| ST3GAL2 (UniProt Q16842) | inactive: 0.007 |
| SRP54 (UniProt P61011) | inactive: -0.036 |
| SRSF5 (UniProt Q13243) | inactive: 0 |
| SRA1 (UniProt Q9HD15) | inactive: 0.015 |
| SSX2 (UniProt Q16385) | inactive: 0.023 |
| SPRYD4 (UniProt Q8WW59) | inactive: -0.032 |
| SPCS3 (UniProt P61009) | inactive: -0.009 |
| STAM2 (UniProt O75886) | inactive: -0.001 |
| STK11IP (UniProt Q8N1F8) | inactive: -0.048 |
| SRP68 (UniProt Q9UHB9) | inactive: -0.029 |
